Experimental data reported in PMC10163288.
This is one part of the list.

B1: il2ra_site2_3nfp_normal_mot_HHH_b1_07095_000000265_0001_1_20_H_._HHH_b1_08537_af2_0001_0000500029_0000001_0 (protein)
chain: SSSSDEEREEAEELLKEAQELLEEGNPEEAEEVVSRAAALAARANDFELFALANELMEKIISSSS
B2: il2ra_site1_2b5i_normal_mot_HHH_b2_04910_000000118_0001_1_19_H_._HHH_b2_07602_af2_0001_0000200008_0000001_0_af2pred_0001_af2pred (protein)
chain: SSSSSSNEAFELLREANELARNGNPEEARKVLEEAEEVARELGDRSILRLVEAALRSTSSSSSSS
B3: il2ra_site1_1z92_sap_15_mot_HHH_b2_06068_af2_000000044_0001_1_20_H_._HHH_b1_04293_0001_0000600039_0000001_0_0001_af2pred_0001_af2pred_1 (protein)
chain: SSSSDERLRRLLELAVELAVKVAGLSEEQEEELQKLAEELAERGVDFEEAFQIVIKLAAELSSSS
B4: il2ra_site1_2b5i_normal_mot_HHH_b2_04910_000000118_0001_1_19_H_._HHH_b2_01555_af2_0001_0000700011_0000001_0_af2pred_0001_af2pred (protein)
chain: SSSSSSSAEELLKEANELDQNGNPEEAKEVLEQAEEEAEKLNNRSLLRSIRAALRLSESSSSSSS
B5: il2ra_site2_2erj_sap_25_mot_HHH_b2_07139_000000086_0001_40_57_H_._HHH_b1_02157_af2_0001_0000200030_0000001_0_0001_af2pred_0001_af2pred (protein)
chain: SSSSSSDHEEEVERLLEEAKHTPDLHEALKLLQEADQIAVENENDELLELVQKILRELSSSSSSS
B6: il2ra_site2_3nfp_normal_mot_HHH_b1_05627_af2_000000038_0001_43_56_H_._HHH_b1_04379_0001_0000100004_0000001_0 (protein)
chain: SSSSDKREEYLEAALLTLEEAIRFGDEEVVERLIQAIEEAAEAARDEEIEERLRKLEEEFSSSSS
B7: il2ra_site2_2erj_sap_16_mot_HHH_b1_00449_000000059_0001_39_52_H_._HHH_b1_03513_0001_0000400032_0000001_0_0001_af2pred_0001_1_af2pred_swapped (protein)
chain: DDAERAVRHALEWAIKYNDPDAFKTALRLAEWMLGDPEEARELLRELLEKLVPPEEVEEIEELLK
B8: il2ra_site1_3nfp_sap_9_mot_HHH_b2_00128_000000255_0001_39_54_H_._HHH_b2_00952_0001_0000300007_0000001_1_0001_af2pred_0001_af2pred_1 (protein)
chain: SSSSTEENRRAVELSRRILELLKEGDDEEAEELLKELEELAEKANDPVMKLFVERLERRLRSSSS
B9: il2ra_site2_2erj_normal_mot_c2bf78bdce995293a161f7082e24b401_0001_af2_000000082_0001_17_32_H_._HHH_b1_00942_af2_0001_0000200020_0000001_0 (protein)
chain: SSSSNEKLKELYRLANELLRLVFEGDEEKFEEVFQELERLIEELDSKSAREILEQLRRLLHSSSS
B10: il2ra_site2_2erj_normal_mot_678ce523d3521e26f84bf18760a59296_0001_000000113_0001_1_12_H_._HHH_b2_02924_af2_0001_0000200006_0000001_0_af2pred_0001_1_af2pred_swap … (protein)
chain: SSSSSSHVEEIAQRLAEEAEELGDKELAELALEIALRFARAAGDEEAEREIEELIEEVRGSSSSS

Biological target: il2ra, P01589
Test: yeast display titration

Apparent Kd, inactive:
B1 no binding seen
B2 no binding seen
B3 no binding seen
B4 no binding seen
B5 no binding seen
B6 no binding seen
B7 no binding seen
B8 no binding seen
B9 no binding seen
B10 no binding seen

Reprinted at random: two records from the list, in no set order.
Apparent Kd, inactive:
B3 no binding seen
B5 no binding seen
